Measurements published in PubChem BioAssay AID2685 (National Center for Advancing Translational Sciences (NCATS), 2010).
This is one part of the list. Further columns of the screen follow, without active or inactive calls. The list favours compounds with an active or inconclusive main result. Words in brackets tell the shape of the fitted curve; partial curves, single points and poor fits give uncertain potencies.

Assay: qHTS Assay for Lipid Storage Modulators in Drosophila S3 Cells;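 for cell number change: cells counted by Cell Tracker Red CMTPX staining in the red channel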
Settings: BODIPY lipid droplet fluorescence, 18-24 h; for cell number change: measured here: cell count max response, cells fed with added oleic acid
Summary of the method: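 Laser-scanning cytometry quantifies lipid droplet accumulation (500–530 nm total intensity; droplet/cell object ratio) in oleic acid-fed (400 uM added) Drosophila S3 cells treated with a concentration series. 20 uM Triacsin C defined 100% inhibition.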

[1] = measured here: lipid fluorescence (Fed channel) AC50, cells fed with added oleic acid
[2] = measured here: cell number channel AC50, cells fed with added oleic acid

Row | Compound | AC50 [1] | cell number change [%] | AC50 [2]
1 | COc1ccc(NC(=O)c2cccc(S(=O)(=O)N3CCCCC3)c2)c(OC)c1 | 20.6 µM [rising, single point] |  | 
2 | O=C(Cc1cccc(NC(=O)C2CCCN(C(=O)C3CC3)C2)c1)Nc1cccc(C(=O)N2CCCC2)c1 (stereo not drawn) | 2.31 µM [falling, partial curve, poor fit] | -27.9 | 
3 | COc1ccc(-c2csc(NC(=O)c3ccc(S(=O)(=O)N4CCc5ccccc5C4)cc3)n2)c(OC)c1 | 1.16 µM [rising, full curve] | 18.9 | 
4 | CCOC(=O)N/N=C/c1ccccc1OCc1ccc(Cl)cc1 | 29.1 µM [rising, single point] |  | 
5 | CCOC(=O)/C(=C\c1ccc(OC(F)F)cc1)C1=Nn2c(nnc2-c2ccc(Cl)cc2)SC1 | 1.03 µM [falling, partial curve, poor fit] | -10.9 | 0.461 µM [falling, partial curve, poor fit]
6 | O=c1cc(CSc2nnc(COc3ccccc3)o2)c2ccccc2[nH]1 | 5.8 µM [rising, partial curve] | -4.36 | 
7 | O=c1c(-c2ccccc2)nnc2sc(COc3ccc(Br)cc3)nn12 |  |  | 6.51 µM [rising, single point]
8 | COc1ccc(CC(=O)c2ccc(OC3OC(CO)C(O)C(O)C3O)cc2O)cc1 (stereo not drawn) | 0.103 µM [falling, full curve, poor fit] | -17 | 
9 | COc1cc(OC)cc(C(=O)Nc2ccc(N3CCOCC3)cc2N2CCOCC2)c1 | 0.00461 µM [falling, full curve] | 4 | 
10 | Fc1cccc(-c2oncc2-c2nnnn2-c2ccc(Cl)cc2)c1 | 0.291 µM [rising, partial curve, poor fit] | -1.37 | 
11 | CC(=O)N1N=C(c2ccc(Br)cc2)OC1(C)CC(=O)Nc1ccccc1 (stereo not drawn) | 0.058 µM [rising, full curve, poor fit] | 3.35 | 
12 | COc1ccc(/C=C/C(=O)Oc2ccc(/C=N/NC(=O)c3ccccc3)cc2)cc1OC | 29.1 µM [falling, single point] | -20.8 | 
13 | COc1ccc(-c2oc(NC(=O)CSc3nncn3C)c(C#N)c2-c2ccc(OC)cc2)cc1 | 6.51 µM [rising, single point] |  | 6.51 µM [rising, single point]
14 | COc1ccc(C(CNC(=O)CSc2ccccc2F)N2CCOCC2)cc1 (stereo not drawn) | 29.1 µM [falling, single point] | -8.97 | 
15 | CC(=O)N1CCN(S(=O)(=O)c2cccc(C(=O)N(C)Cc3ccc(C)o3)c2)CC1 |  | 15.7 | 
16 | COc1cc(CNc2ccc3[nH]c(=O)[nH]c3c2)ccc1OCc1ccc(C)cc1 | 29.1 µM [rising, partial curve] | 155 | 29.1 µM [rising, single point]
17 | Cc1ccc(C(=O)NNC(=O)CSc2n[nH]c(-c3cccnc3)n2)cc1 |  | 13.4 | 0.0116 µM [falling, full curve, poor fit]
18 | Cn1c(CN2CCOCC2)nc2cc(NC(=O)c3ccc(F)cc3)ccc21 |  | 6.75 | 
19 | O=C(Nc1ccc(F)cc1)c1ccc2c(c1)S(=O)(=O)N=C1CCCCCN12 | 6.51 µM [rising, single point] | -3.93 | 
20 | CC(C)[C@]1(c2ccc(Cl)cc2)ON(c2ccccc2C(F)(F)F)C1=O | 0.00517 µM [rising, full curve, poor fit] | -48.5 | 5.17 µM [falling, single point]
21 | COC(=O)c1[nH]c2c(c1C)C(=O)CC(c1ccc(OC)c(OC)c1)C2 (stereo not drawn) |  | -16.1 | 

Sorted by number of heavy atoms (descending): part of the list above
Row | Compound | AC50 [1] | cell number change [%] | AC50 [2]
2 | O=C(Cc1cccc(NC(=O)C2CCCN(C(=O)C3CC3)C2)c1)Nc1cccc(C(=O)N2CCCC2)c1 (stereo not drawn) | 2.31 µM [falling, partial curve, poor fit] | -27.9 | 
13 | COc1ccc(-c2oc(NC(=O)CSc3nncn3C)c(C#N)c2-c2ccc(OC)cc2)cc1 | 6.51 µM [rising, single point] |  | 6.51 µM [rising, single point]
5 | CCOC(=O)/C(=C\c1ccc(OC(F)F)cc1)C1=Nn2c(nnc2-c2ccc(Cl)cc2)SC1 | 1.03 µM [falling, partial curve, poor fit] | -10.9 | 0.461 µM [falling, partial curve, poor fit]
12 | COc1ccc(/C=C/C(=O)Oc2ccc(/C=N/NC(=O)c3ccccc3)cc2)cc1OC | 29.1 µM [falling, single point] | -20.8 | 
9 | COc1cc(OC)cc(C(=O)Nc2ccc(N3CCOCC3)cc2N2CCOCC2)c1 | 0.00461 µM [falling, full curve] | 4 | 
8 | COc1ccc(CC(=O)c2ccc(OC3OC(CO)C(O)C(O)C3O)cc2O)cc1 (stereo not drawn) | 0.103 µM [falling, full curve, poor fit] | -17 | 
15 | CC(=O)N1CCN(S(=O)(=O)c2cccc(C(=O)N(C)Cc3ccc(C)o3)c2)CC1 |  | 15.7 | 
14 | COc1ccc(C(CNC(=O)CSc2ccccc2F)N2CCOCC2)cc1 (stereo not drawn) | 29.1 µM [falling, single point] | -8.97 | 
18 | Cn1c(CN2CCOCC2)nc2cc(NC(=O)c3ccc(F)cc3)ccc21 |  | 6.75 | 
17 | Cc1ccc(C(=O)NNC(=O)CSc2n[nH]c(-c3cccnc3)n2)cc1 |  | 13.4 | 0.0116 µM [falling, full curve, poor fit]
21 | COC(=O)c1[nH]c2c(c1C)C(=O)CC(c1ccc(OC)c(OC)c1)C2 (stereo not drawn) |  | -16.1 | 
10 | Fc1cccc(-c2oncc2-c2nnnn2-c2ccc(Cl)cc2)c1 | 0.291 µM [rising, partial curve, poor fit] | -1.37 | 
4 | CCOC(=O)N/N=C/c1ccccc1OCc1ccc(Cl)cc1 | 29.1 µM [rising, single point] |  | 

(listing goes on)

Row | Compound | AC50 [1] | cell number change [%] | AC50 [2]
22 | CCc1ccc(NC(=O)COc2ccc3c(c2)OCO3)cc1 |  | 14.2 | 
23 | O=C1Nc2ccccc2/C1=C/c1ccnc2ccccc12 |  | -33.3 | 
24 | Cc1ccccc1OCC(O)Cn1c(NCc2ccccc2)nc2c1c(=O)[nH]c(=O)n2C (stereo not drawn) | 25.9 µM [falling, single point] | -4.03 | 
25 | O=C1OC/C(=C(/O)c2ccc(Cl)cc2)C1=O |  | 15.9 | 
26 | COc1cccc(C(=O)NCC(c2ccco2)N2CCc3ccccc3C2)c1 (stereo not drawn) | 16.4 µM [rising, partial curve] | 17.9 | 
27 | CCN(CC)C(=O)Cn1cc(C(=O)C(=O)N(CC)C2CCCCC2)c2ccccc21 |  | 2.6 | 
28 | CN(Cc1nc2ccccc2c(=O)[nH]1)C(=O)COc1ccccc1Cc1ccccc1 | 0.58 µM [rising, full curve, poor fit] | 9.21 | 
29 | NS(=O)(=O)c1ccc(CNC(=O)c2cc(=O)[nH]c3ccccc23)cc1 |  | 10.1 | 
30 | CC(=O)Nc1ccc(N2CCc3c(C)c(C#N)c4nc5ccccc5n4c32)cc1 |  | 16.7 | 3.26 µM [rising, single point]
31 | Cc1nc2nc(SCc3ccc([N+](=O)[O-])cc3)[nH]c2cc1Br |  | 20.9 | 
32 | O=C(Nc1cccc2ncccc12)c1ccccc1Cl | 14.6 µM [rising, partial curve, poor fit] | -9.52 | 
33 | NC(=O)NCc1ccccc1F | 2.91 µM [falling, full curve] | -11.8 | 
34 | CC1CN(C(=S)NC(=O)C2CCCCC2)CC(C)O1 (stereo not drawn) | 32.6 µM [falling, single point] | -1.23 | 
35 | C/C(=N\NC(=O)Cn1ccc(C(F)(F)F)n1)c1ccco1 |  | -16.8 | 
36 | O=C(O)c1cccc(CSc2nc(-c3ccccc3)cc(C(F)(F)F)n2)c1 | 29.1 µM [rising, single point] | 22.8 | 
37 | CCOc1ccc(Nc2ccc(S(=O)(=O)N3CCN(C)CC3)cc2[N+](=O)[O-])cc1OCC | 0.731 µM [rising, single point] | -30.4 | 29.1 µM [falling, partial curve]
38 | CCCCNS(=O)(=O)c1ccc(NS(=O)(=O)c2c(C)cc(C)cc2C)cc1 | 0.00461 µM [rising, full curve, poor fit] | 59.4 | 16.4 µM [rising, single point]
39 | CCOc1ccc(S(=O)(=O)NCCC(=O)NCC(c2ccc(F)cc2)N2CCOCC2)cc1 (stereo not drawn) |  | 30.9 | 9.2 µM [rising, partial curve, poor fit]
40 | Cc1ccc(NS(=O)(=O)c2ccc(C(=O)NCC(c3ccco3)N3CCCCC3)cc2)cc1 (stereo not drawn) |  | 178 | 14.6 µM [rising, partial curve]
41 | NC(=O)/C(=C/c1ccc2c(c1)OCO2)NC(=O)c1ccco1 | 10.3 µM [rising, partial curve, poor fit] | 0.279 | 
42 | O=c1c2[nH]c3ccc(F)cc3c2ncn1CCC1=CCCCC1 | 3.26 µM [rising, partial curve] | 5.03 | 

Row | Compound | AC50 [1] | cell number change [%] | AC50 [2]
43 | O=C(CCN1C(=O)S/C(=C\c2ccccc2)C1=O)N1CCCCC1 |  | -5.13 | 
44 | CC(=O)c1c(C(C)=O)c(C)n(Cc2ccc(Cl)cc2)c1C |  | 2.07 | 
45 | Cc1cc(C)cc(S(=O)(=O)c2cnc3ccccc3n2)c1 |  | 17.1 | 0.00461 µM [rising, full curve, poor fit]
46 | COc1cccc(CC(=O)OCC(=O)N(C)CC(=O)Nc2ccc(F)cc2)c1 | 29.1 µM [falling, single point] | -32.5 | 3.66 µM [falling, partial curve, poor fit]
47 | CCCc1nn2c(=O)cc(CSCC(=O)Nc3nnc(C(C)C)s3)nc2s1 | 29.1 µM [rising, single point] | 40.8 | 7.31 µM [rising, partial curve]
48 | C/C(N)=C(/C#N)C(=O)COC(=O)c1oc2ccccc2c1COC(C)C | 3.66 µM [falling, partial curve, poor fit] | -24.7 | 
49 | COc1cc(NC(=O)[C@H](C)NC(=O)N2CCn3c2nc2ccccc23)cc(OC)c1 |  | 9.67 | 
50 | CC(=O)c1c(C)oc2ccc(NS(=O)(=O)c3ccccc3)cc12 |  | 18.4 | 
51 | O=C(COC(=O)c1cccc(O)c1)Nc1nnc(-c2ccccc2)o1 |  | 18.5 | 
52 | Cc1cccc(Cn2c(NCCO)nc3c2c(=O)n(C)c(=O)n3C)c1 | 18.4 µM [falling, partial curve] | -56.5 | 10.3 µM [falling, partial curve]
53 | Cc1ccc(/C=N/NC(=O)Cc2c[nH]c3ccccc23)c(C)c1 | 29.1 µM [falling, single point] | -27.1 | 
54 | COc1ccc(CCNC(=O)c2cc3sccc3n2C)cc1OC | 29.1 µM [falling, single point] | -30.4 | 29.1 µM [falling, single point]
55 | COC(=O)C(CCSC)NC(=O)C(NC(=O)C1CCC(C)CC1)C(C)C (stereo not drawn) |  | 0.72 | 
56 | CC(=O)NC(Cc1cccc(F)c1)C(=O)NC1CCN(C(=O)Nc2ccc(C)cc2)CC1 (stereo not drawn) |  | 5.13 | 3.26 µM [rising, partial curve, poor fit]
57 | COc1ccc(N2CCN(CCCNC(=O)CCC(=O)N3CCOc4ccc(Cl)cc43)CC2)cc1 | 0.58 µM [rising, single point] | 21.2 | 
58 | COc1ccccc1N(C)S(=O)(=O)c1ccc(C)c(C(=O)NC(C)c2ccccn2)c1 (stereo not drawn) | 32.6 µM [rising, single point] | 30.7 | 
59 | C=CCn1c(NCc2cc(Cl)ccc2O)nc2ccccc21 | 23.1 µM [falling, single point] | -16.5 | 
60 | O=C(Cc1ccc(NC2=NC3CS(=O)(=O)CC3S2)cc1)NCc1ccccc1Cl (stereo not drawn) |  | 22.5 | 7.31 µM [rising, partial curve, poor fit]
61 | CCCS(=O)(=O)N1CCCC(C(=O)NCCCN2CCN(c3cccc(Cl)c3)CC2)C1 (stereo not drawn) | 0.0291 µM [falling, full curve, poor fit] | -31.5 | 29.1 µM [falling, single point]

Part of the list above, as comma-separated lines:
Row,Compound,AC50 [1],cell number change [%],AC50 [2]
49,COc1cc(NC(=O)[C@H](C)NC(=O)N2CCn3c2nc2ccccc23)cc(OC)c1,,9.67,
50,CC(=O)c1c(C)oc2ccc(NS(=O)(=O)c3ccccc3)cc12,,18.4,
